These results are taken from publication PMC5988292.

By UniProt entry, the sequences of proteins in these tests, tags left out.
UniProt P61586: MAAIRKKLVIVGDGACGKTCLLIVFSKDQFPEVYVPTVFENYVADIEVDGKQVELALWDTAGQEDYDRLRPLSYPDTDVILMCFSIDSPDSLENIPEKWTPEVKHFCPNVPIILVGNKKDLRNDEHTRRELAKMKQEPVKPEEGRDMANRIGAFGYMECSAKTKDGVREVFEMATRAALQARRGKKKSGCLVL

This test concerns the target YFP-RhoA·GTPγS (UniProt P61586). The test is described as follows: FRET or BRET; competition: non-fluorescent PH domain titrated into 1 μM YFP-RhoA·GTPγS + 1 μM CFP-PRG-PH; 20 mM NaHEPES pH 7.5, 1 mM EDTA, 1 mM DTT, 100 mM NaCl, 5 mM MgCl2; 25 °C; ratio 525/475 nm; both purified. Background: BRET reads energy transfer from a luciferase to a nearby fluorophore.

Results are given in words; binding and its absence hold for the method and conditions named. Some binding calls cover weakened binding; strength is not graded here.

B1: PH domain from p190RhoGEF (domain or fragment, UniProt Q8N1W1 1086-1188)
chain: TLLYDGLVYWKTATGRFKDILALLLTDVLLFLQEKDQKYIFAAVDQKPSVISLQKLIAREVANEERGMFLISASSAGPEMYEIHTNSKEERNNWMRRIQQAVE
Consider B1, for which the binding entry is “binds”.
